{"source": "PubChem BioAssay AID1224828 (NIAID, 2016)", "test": "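Find genes required for NF-kappaB p65 moving into the nucleus after LPS in mouse macrophages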 (primary screen)", "system": "mouse RAW264.7 G9 macrophage reporter cells (GFP-p65, Tnf promoter-mCherry)", "knock-down reagent": "siRNA pool against mouse genes, 100 nM", "timing": "2 days siRNA transfection, then 40 min LPS before fixation", "treatment": "LPS (Salmonella minnesota R595) at 10 ng/ml", "read-out": "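Imaged p65 nuclear translocation ratio, normalised to the plate median, converted to robust z-scores and averaged across two replicates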", "scale": "p65 translocation robust z-score: higher = more nuclear NF-kappaB p65 after LPS than the plate median; nuclear/cytoplasmic p65 ratio: higher = more nuclear NF-kappaB p65", "active means": "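Active if robust z is above 3.3 (negative regulators) or below -1.56, the Tlr4 control median (positive regulators); activity score 50 or more; control wells not called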", "meaning of the calls": "active = hit (p65 shift raised or lowered); inactive = no clear change", "note": "In all, the deposit lists about 17,000 reagents; below is an unselected part. In the full data, 762 (4.5%) got an active call. 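Active calls include both raised and lowered p65 entry, mostly lowered; wells with fewer than 50 cells lack a z-score.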 Raw values vary from plate to plate and are shown uncorrected. A number with no mark means an inactive call."}
{"gene symbol": "B4galt5 (GeneID 56336)", "p65 translocation robust z-score": 0.68, "nuclear/cytoplasmic p65 ratio, rep 1": 1.69, "nuclear/cytoplasmic p65 ratio, rep 2": 1.95, "low cell count flag": "enough cells to score"}
{"gene symbol": "Tas2r115 (GeneID 353325)", "p65 translocation robust z-score": -0.05, "nuclear/cytoplasmic p65 ratio, rep 1": 1.36, "nuclear/cytoplasmic p65 ratio, rep 2": 1.07, "low cell count flag": "enough cells to score"}
{"gene symbol": "Cox7b (GeneID 66142)", "p65 translocation robust z-score": -0.51, "nuclear/cytoplasmic p65 ratio, rep 1": 1.58, "nuclear/cytoplasmic p65 ratio, rep 2": 1.61, "low cell count flag": "enough cells to score"}
{"gene symbol": "5730455P16Rik (GeneID 70591)", "p65 translocation robust z-score": -0.02, "nuclear/cytoplasmic p65 ratio, rep 1": 1.57, "nuclear/cytoplasmic p65 ratio, rep 2": 1.65, "low cell count flag": "enough cells to score"}
{"gene symbol": "Gtf2a2 (GeneID 235459)", "p65 translocation robust z-score": -0.03, "nuclear/cytoplasmic p65 ratio, rep 1": 1.58, "nuclear/cytoplasmic p65 ratio, rep 2": 1.55, "low cell count flag": "enough cells to score"}
{"gene symbol": "Ercc4 (GeneID 50505)", "p65 translocation robust z-score": 0.53, "nuclear/cytoplasmic p65 ratio, rep 1": 1.55, "nuclear/cytoplasmic p65 ratio, rep 2": 1.43, "low cell count flag": "enough cells to score"}
{"gene symbol": "Cenpa (GeneID 12615)", "p65 translocation robust z-score": 2.15, "nuclear/cytoplasmic p65 ratio, rep 1": 1.76, "nuclear/cytoplasmic p65 ratio, rep 2": 1.65, "low cell count flag": "enough cells to score"}
{"gene symbol": "Tyw2 (GeneID 68260)", "p65 translocation robust z-score": -0.21, "nuclear/cytoplasmic p65 ratio, rep 1": 1.26, "nuclear/cytoplasmic p65 ratio, rep 2": 1.23, "low cell count flag": "enough cells to score"}
{"gene symbol": "Zc3h13 (GeneID 67302)", "p65 translocation robust z-score": 0.4, "nuclear/cytoplasmic p65 ratio, rep 1": 1.23, "nuclear/cytoplasmic p65 ratio, rep 2": 1.4, "low cell count flag": "enough cells to score"}
{"gene symbol": "Utp4 (GeneID 21771)", "p65 translocation robust z-score": -0.88, "nuclear/cytoplasmic p65 ratio, rep 1": 1.36, "nuclear/cytoplasmic p65 ratio, rep 2": 1.43, "low cell count flag": "enough cells to score"}
{"gene symbol": "Dnajc6 (GeneID 72685)", "p65 translocation robust z-score": 0.86, "nuclear/cytoplasmic p65 ratio, rep 1": 1.58, "nuclear/cytoplasmic p65 ratio, rep 2": 1.45, "low cell count flag": "enough cells to score"}
{"gene symbol": "Smim30 (GeneID 66520)", "p65 translocation robust z-score": 2.9, "nuclear/cytoplasmic p65 ratio, rep 1": 1.78, "nuclear/cytoplasmic p65 ratio, rep 2": 1.78, "low cell count flag": "enough cells to score"}
{"gene symbol": "H2az1 (GeneID 51788)", "p65 translocation robust z-score": 0.25, "nuclear/cytoplasmic p65 ratio, rep 1": 1.43, "nuclear/cytoplasmic p65 ratio, rep 2": 1.44, "low cell count flag": "enough cells to score"}
{"gene symbol": "Adprs (GeneID 100206)", "p65 translocation robust z-score": -0.17, "nuclear/cytoplasmic p65 ratio, rep 1": 1.66, "nuclear/cytoplasmic p65 ratio, rep 2": 1.53, "low cell count flag": "enough cells to score"}
{"gene symbol": "Timcc (GeneID 66488)", "nuclear/cytoplasmic p65 ratio, rep 1": 1.29, "nuclear/cytoplasmic p65 ratio, rep 2": 1.37, "low cell count flag": "fewer than 50 cells per well; well left out of scoring"}
{"gene symbol": "Tcp10b (GeneID 21462)", "nuclear/cytoplasmic p65 ratio, rep 1": 0.951, "nuclear/cytoplasmic p65 ratio, rep 2": 1.02, "low cell count flag": "fewer than 50 cells per well; well left out of scoring"}
{"gene symbol": "Cog1 (GeneID 16834)", "p65 translocation robust z-score": -0.14, "nuclear/cytoplasmic p65 ratio, rep 1": 1.63, "nuclear/cytoplasmic p65 ratio, rep 2": 1.7, "low cell count flag": "enough cells to score"}
{"gene symbol": "Or52b1 (GeneID 56860)", "p65 translocation robust z-score": 1.82, "nuclear/cytoplasmic p65 ratio, rep 1": 1.69, "nuclear/cytoplasmic p65 ratio, rep 2": 1.36, "low cell count flag": "enough cells to score"}
{"gene symbol": "Stx18 (GeneID 71116)", "p65 translocation robust z-score": "-2.96 (active)", "nuclear/cytoplasmic p65 ratio, rep 1": 1.03, "nuclear/cytoplasmic p65 ratio, rep 2": 1.08, "low cell count flag": "enough cells to score"}
{"gene symbol": "Fastkd3 (GeneID 69577)", "nuclear/cytoplasmic p65 ratio, rep 1": 1.65, "nuclear/cytoplasmic p65 ratio, rep 2": 1.72, "low cell count flag": "fewer than 50 cells per well; well left out of scoring"}
{"gene symbol": "Dennd2c (GeneID 329727)", "p65 translocation robust z-score": -0.56, "nuclear/cytoplasmic p65 ratio, rep 1": 1.28, "nuclear/cytoplasmic p65 ratio, rep 2": 1.48, "low cell count flag": "enough cells to score"}

An excerpt from the list above:
{"gene symbol": "Adprs (GeneID 100206)", "p65 translocation robust z-score": -0.17, "nuclear/cytoplasmic p65 ratio, rep 1": 1.66, "nuclear/cytoplasmic p65 ratio, rep 2": 1.53, "low cell count flag": "enough cells to score"}
{"gene symbol": "Timcc (GeneID 66488)", "nuclear/cytoplasmic p65 ratio, rep 1": 1.29, "nuclear/cytoplasmic p65 ratio, rep 2": 1.37, "low cell count flag": "fewer than 50 cells per well; well left out of scoring"}
{"gene symbol": "Tcp10b (GeneID 21462)", "nuclear/cytoplasmic p65 ratio, rep 1": 0.951, "nuclear/cytoplasmic p65 ratio, rep 2": 1.02, "low cell count flag": "fewer than 50 cells per well; well left out of scoring"}
